The record followed here is the supplement of paper PMC6411743.

By UniProt entry, the sequences of proteins in these tests, tags left out. Where a name states a change or a piece, a line headed by the entry shows the natural chain unless it says otherwise.
UniProt Q8NFD5, whole entry: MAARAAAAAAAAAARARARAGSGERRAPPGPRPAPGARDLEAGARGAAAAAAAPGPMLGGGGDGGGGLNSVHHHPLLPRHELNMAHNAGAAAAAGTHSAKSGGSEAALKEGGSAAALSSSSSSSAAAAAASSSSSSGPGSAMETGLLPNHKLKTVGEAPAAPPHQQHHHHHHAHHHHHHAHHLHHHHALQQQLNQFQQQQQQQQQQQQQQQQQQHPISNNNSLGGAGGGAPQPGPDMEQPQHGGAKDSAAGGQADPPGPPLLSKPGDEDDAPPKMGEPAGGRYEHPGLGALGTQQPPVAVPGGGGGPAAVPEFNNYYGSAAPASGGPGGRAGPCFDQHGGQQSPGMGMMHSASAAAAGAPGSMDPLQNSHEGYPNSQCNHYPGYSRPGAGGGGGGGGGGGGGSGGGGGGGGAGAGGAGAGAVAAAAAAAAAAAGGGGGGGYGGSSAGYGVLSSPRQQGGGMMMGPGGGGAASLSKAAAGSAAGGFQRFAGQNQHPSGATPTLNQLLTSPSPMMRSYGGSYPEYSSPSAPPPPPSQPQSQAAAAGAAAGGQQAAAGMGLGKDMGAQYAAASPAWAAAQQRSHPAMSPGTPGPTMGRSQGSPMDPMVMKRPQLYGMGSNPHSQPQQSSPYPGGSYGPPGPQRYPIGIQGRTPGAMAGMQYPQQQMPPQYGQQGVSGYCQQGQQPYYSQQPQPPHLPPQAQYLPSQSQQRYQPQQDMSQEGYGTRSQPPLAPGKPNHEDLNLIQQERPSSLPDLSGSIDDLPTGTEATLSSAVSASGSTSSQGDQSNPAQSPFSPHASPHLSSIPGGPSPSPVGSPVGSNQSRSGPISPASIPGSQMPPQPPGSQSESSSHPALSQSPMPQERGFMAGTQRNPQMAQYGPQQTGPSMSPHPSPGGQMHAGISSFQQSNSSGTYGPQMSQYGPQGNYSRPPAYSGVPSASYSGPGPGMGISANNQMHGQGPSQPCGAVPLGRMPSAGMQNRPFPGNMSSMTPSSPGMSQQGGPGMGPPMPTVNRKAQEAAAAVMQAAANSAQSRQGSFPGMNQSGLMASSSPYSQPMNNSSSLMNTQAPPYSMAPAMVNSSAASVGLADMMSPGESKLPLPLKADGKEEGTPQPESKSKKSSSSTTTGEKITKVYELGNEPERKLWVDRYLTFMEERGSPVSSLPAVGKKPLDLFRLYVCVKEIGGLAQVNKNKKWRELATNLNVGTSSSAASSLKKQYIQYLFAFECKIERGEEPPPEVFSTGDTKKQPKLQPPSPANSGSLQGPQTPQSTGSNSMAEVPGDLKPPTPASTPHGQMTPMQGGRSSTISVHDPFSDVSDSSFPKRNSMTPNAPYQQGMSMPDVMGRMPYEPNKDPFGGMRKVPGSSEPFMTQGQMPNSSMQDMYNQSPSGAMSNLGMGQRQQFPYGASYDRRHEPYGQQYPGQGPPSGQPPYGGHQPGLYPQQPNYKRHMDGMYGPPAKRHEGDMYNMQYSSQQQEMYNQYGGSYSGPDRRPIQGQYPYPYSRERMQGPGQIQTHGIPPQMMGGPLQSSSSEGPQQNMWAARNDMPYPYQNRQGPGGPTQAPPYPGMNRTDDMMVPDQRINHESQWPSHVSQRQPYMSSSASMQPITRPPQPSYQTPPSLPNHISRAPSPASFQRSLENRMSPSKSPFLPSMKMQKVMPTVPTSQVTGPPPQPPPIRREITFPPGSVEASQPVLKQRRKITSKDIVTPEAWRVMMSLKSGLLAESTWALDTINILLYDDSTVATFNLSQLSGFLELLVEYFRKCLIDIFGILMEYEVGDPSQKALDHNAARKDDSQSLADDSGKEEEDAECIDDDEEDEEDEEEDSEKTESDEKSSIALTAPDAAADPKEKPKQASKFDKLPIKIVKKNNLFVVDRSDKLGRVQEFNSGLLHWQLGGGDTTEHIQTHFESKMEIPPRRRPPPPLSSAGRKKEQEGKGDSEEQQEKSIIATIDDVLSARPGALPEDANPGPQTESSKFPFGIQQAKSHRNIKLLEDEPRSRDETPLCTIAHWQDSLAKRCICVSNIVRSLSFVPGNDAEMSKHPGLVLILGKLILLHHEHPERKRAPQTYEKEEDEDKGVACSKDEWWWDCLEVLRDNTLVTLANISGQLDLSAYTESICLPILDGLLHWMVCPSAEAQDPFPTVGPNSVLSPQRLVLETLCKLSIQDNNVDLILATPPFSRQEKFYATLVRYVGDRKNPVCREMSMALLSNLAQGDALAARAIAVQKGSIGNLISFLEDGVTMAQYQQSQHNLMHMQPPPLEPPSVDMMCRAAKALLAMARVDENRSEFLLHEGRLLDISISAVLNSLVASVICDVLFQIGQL
UniProt Q8NHH9: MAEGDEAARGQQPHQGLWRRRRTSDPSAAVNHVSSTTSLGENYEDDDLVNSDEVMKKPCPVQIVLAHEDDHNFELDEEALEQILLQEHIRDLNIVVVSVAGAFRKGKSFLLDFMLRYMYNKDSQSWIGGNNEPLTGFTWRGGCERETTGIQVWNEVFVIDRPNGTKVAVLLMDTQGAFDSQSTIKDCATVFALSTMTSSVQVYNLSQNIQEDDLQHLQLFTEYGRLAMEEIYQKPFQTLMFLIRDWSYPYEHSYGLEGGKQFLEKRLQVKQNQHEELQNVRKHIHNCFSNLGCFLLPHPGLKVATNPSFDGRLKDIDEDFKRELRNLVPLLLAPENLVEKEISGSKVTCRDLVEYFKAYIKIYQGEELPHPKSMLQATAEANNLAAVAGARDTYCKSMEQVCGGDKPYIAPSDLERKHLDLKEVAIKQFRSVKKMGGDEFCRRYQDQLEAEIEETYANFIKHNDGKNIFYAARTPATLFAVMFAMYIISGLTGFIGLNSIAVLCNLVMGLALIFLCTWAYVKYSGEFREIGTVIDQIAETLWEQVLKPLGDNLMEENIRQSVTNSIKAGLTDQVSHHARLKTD
UniProt Q8NC51: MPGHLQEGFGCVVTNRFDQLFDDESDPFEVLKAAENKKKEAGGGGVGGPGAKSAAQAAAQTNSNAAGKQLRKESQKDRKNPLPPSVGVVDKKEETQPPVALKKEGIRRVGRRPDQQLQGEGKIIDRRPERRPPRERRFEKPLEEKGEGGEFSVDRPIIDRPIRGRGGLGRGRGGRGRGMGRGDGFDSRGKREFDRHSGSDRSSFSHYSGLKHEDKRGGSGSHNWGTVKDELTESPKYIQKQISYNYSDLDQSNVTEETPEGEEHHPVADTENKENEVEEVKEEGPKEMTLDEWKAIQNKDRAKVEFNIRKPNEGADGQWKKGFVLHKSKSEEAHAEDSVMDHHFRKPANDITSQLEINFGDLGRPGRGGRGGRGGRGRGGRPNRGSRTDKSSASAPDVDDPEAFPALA
UniProt Q8TAP9: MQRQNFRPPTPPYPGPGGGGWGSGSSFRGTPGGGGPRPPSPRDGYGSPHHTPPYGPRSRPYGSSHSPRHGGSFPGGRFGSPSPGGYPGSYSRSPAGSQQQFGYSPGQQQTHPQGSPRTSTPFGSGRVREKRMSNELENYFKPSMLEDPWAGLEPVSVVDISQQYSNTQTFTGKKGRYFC
UniProt Q8WUA2: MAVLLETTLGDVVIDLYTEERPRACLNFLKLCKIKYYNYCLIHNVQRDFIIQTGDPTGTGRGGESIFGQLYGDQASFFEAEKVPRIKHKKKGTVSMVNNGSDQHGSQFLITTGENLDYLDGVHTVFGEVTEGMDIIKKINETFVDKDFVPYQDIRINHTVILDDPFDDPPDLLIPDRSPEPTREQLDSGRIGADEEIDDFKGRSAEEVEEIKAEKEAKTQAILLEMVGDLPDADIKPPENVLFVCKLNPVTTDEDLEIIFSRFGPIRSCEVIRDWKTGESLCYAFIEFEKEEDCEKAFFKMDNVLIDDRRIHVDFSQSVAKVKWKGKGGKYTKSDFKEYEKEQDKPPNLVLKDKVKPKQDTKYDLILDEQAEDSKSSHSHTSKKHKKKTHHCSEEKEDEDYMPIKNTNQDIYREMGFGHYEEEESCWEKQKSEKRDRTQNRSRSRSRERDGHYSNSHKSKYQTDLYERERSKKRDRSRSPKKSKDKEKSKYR
UniProt Q8WVD3: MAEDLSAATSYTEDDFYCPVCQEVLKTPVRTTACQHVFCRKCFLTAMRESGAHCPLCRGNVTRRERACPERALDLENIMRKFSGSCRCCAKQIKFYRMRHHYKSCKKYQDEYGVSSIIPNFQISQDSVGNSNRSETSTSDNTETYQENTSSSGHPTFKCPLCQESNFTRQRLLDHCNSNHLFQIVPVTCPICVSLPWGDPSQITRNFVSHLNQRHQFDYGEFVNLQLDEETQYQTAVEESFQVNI
UniProt Q92917: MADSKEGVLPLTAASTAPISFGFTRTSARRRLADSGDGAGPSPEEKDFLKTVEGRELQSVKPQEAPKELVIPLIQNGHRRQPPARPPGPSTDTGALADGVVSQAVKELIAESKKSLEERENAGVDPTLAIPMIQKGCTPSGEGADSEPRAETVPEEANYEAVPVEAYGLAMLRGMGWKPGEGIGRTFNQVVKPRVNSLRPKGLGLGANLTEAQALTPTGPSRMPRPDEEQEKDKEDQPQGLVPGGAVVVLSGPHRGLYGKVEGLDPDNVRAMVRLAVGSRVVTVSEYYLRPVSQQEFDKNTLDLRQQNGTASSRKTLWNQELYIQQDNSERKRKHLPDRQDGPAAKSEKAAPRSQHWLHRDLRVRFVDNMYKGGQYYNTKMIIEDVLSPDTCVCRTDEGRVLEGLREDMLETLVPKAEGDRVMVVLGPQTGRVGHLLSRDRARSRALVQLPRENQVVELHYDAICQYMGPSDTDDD
UniProt Q92547, whole entry: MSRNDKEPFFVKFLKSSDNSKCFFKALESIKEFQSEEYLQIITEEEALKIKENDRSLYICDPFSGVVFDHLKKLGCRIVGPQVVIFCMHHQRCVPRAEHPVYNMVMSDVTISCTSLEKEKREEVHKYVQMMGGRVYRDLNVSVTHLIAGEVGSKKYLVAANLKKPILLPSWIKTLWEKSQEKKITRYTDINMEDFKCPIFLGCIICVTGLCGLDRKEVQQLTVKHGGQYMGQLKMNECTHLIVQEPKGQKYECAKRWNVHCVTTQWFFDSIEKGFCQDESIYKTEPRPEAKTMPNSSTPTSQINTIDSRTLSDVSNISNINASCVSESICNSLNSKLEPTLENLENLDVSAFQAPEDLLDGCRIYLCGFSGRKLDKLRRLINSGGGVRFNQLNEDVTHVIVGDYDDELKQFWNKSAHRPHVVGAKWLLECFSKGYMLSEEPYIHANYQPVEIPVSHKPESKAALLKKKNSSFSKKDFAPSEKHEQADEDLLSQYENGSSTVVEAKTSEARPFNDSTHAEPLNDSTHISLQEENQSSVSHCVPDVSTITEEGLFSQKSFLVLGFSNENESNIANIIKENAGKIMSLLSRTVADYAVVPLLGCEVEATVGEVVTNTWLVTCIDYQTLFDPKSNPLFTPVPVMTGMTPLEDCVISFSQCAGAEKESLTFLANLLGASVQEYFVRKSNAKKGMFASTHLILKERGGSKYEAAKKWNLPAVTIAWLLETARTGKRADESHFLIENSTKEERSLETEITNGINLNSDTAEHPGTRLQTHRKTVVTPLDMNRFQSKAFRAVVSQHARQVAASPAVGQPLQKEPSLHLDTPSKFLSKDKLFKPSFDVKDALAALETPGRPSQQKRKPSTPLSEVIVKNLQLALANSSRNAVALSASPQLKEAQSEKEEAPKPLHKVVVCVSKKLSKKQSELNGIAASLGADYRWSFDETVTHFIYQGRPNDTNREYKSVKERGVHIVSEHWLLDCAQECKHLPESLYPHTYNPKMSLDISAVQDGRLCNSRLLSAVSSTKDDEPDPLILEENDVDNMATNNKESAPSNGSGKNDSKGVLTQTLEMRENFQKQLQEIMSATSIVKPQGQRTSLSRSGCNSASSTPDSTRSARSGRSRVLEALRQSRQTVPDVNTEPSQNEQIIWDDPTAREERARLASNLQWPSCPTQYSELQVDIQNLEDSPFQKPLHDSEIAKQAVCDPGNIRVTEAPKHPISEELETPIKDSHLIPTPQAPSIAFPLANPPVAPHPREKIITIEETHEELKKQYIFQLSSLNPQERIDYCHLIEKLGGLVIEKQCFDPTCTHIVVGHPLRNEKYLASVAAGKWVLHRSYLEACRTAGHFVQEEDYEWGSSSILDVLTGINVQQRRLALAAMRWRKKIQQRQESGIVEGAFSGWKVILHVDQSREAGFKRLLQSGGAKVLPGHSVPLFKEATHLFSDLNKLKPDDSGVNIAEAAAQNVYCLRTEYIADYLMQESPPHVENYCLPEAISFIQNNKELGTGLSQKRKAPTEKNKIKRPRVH
UniProt Q8TBE9: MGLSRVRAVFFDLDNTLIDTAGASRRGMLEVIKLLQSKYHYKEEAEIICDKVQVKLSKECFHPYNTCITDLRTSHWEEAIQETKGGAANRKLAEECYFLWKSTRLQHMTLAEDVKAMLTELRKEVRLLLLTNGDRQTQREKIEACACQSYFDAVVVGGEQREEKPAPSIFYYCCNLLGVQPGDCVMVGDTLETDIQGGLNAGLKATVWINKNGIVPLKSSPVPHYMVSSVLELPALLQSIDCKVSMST

± gives the standard deviation of the averaged measurements. The list shows a part of the results, in another mix than the full data. Most entries show no effect beyond the scatter of the controls.

Compound in one experiment: Nc1ncnc2c1ncn2[C@@H]1O[C@H](COP(=O)(O)OP(=O)(O)NP(=O)(O)O)[C@@H](O)[C@H]1O [adenylyl imidodiphosphate]
The experiment can be described thus: NP40-soluble protein abundance relative to vehicle (solubility fold change) (ratio); higher = more soluble protein in presence of AMP-PNP. The conditions noted are these: concentration: 0.1mM. An outline of the steps: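 Data come from three independent experiments in which Dounce-homogenised Jurkat crude lysate was treated at eight concentrations from 0.1 to 10 mM. Treatment ran 10 min at room temperature and then 3 min at 37 °C, after which 0.8% NP40 and benzonase were added for 60 min at 4 °C before ultracentrifugation. The supernatant underwent TMT labelling and LC-MS/MS, and vsn-normalised intensities were expressed as fold change against the detergent-processed vehicle in each replicate.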
UniProt Q8TB61 and related entries: the NP40-soluble protein abundance is 0.963 ± 0.019.
Regarding LRRC8C (UniProt Q8TDW0), the NP40-soluble protein abundance amounted to 1.009 ± 0.0037.
Still for that read-out and setting: the figure for UniProt Q8TF05 and related entries is 1.01 ± 0.064.
On the same count and under the same terms, the figure for UniProt Q8TDN6 is 1.066 ± 0.0014.
Same read-out and setting: as for UniProt Q8TDR0 and related entries, the figure is 1.03 ± 0.038.
In the case of JADE3 (UniProt Q92613), the NP40-soluble protein abundance was 1.01 ± 0.012.
On the same count and under the same terms, as for NUP43 (UniProt Q8NFH3), the figure is 1.03 ± 0.024.
The same measure, in the same setting: as for SCCPDH (UniProt Q8NBX0), the figure is 1.01 ± 0.045; as for UniProt Q8NFD5 and related entries, 0.9716 ± 0.0085.
The same measure, in the same setting: as for NFATC2IP (UniProt Q8NCF5), the figure is 1.007 ± 0.0093.
For the target SNIP1 (UniProt Q8TAD8), the NP40-soluble protein abundance came to 0.987 ± 0.016.
As to THAP4 (UniProt Q8WY91), the NP40-soluble protein abundance stood at 0.9862 ± 0.0022.
As for UniProt Q8NHH9 and related entries, the NP40-soluble protein abundance amounted to 1.01 ± 0.013.
As to IP6K1 (UniProt Q92551), the NP40-soluble protein abundance was found to be 0.982 ± 0.013.
Still for that read-out and setting: as for UniProt Q8NFA0 and related entries, the figure is 0.99 ± 0.054; as for UniProt Q8NCA5 and related entries, 1.01 ± 0.024.
On the same count and under the same terms, as for GEMIN5 (UniProt Q8TEQ6), the figure is 1.01 ± 0.019.
On the same count and under the same terms, as for DTX3L (UniProt Q8TDB6), the figure is 1.01 ± 0.011; as for NEK9 (UniProt Q8TD19), 1.01 ± 0.015.
As to UniProt Q8NC51 and related entries, the NP40-soluble protein abundance came to 0.983 ± 0.015.
On the same count and under the same terms, the figure for UniProt Q92608 and related entries is 1.02 ± 0.044; for NECAP1 (UniProt Q8NC96) it is 1.02 ± 0.042; for UniProt Q8WUF8 and related entries it is 0.9862 ± 0.0097.
The same measure, in the same setting: the figure for UniProt Q8TAP9 is 0.975 ± 0.02; for PPIL4 (UniProt Q8WUA2) it is 0.984 ± 0.029; for EDEM1 (UniProt Q92611) it is 1.01 ± 0.018.
Still for that read-out and setting: the figure for UniProt Q8WVD3 and related entries is 0.9668 ± 0.002; for GPKOW (UniProt Q92917) it is 0.995 ± 0.025; for TOPBP1 (UniProt Q92547) it is 0.99 ± 0.012.
On to UniProt Q8TCZ2 and related entries, for which the NP40-soluble protein abundance was 0.954 ± 0.033.
Regarding LEMD2 (UniProt Q8NC56), the NP40-soluble protein abundance was 1.052 ± 0.0011.
Same read-out and setting: the figure for MOSPD2 (UniProt Q8NHP6) is 1.01 ± 0.038; for H1FX (UniProt Q92522) it is 0.992 ± 0.016; for NANP (UniProt Q8TBE9) it is 0.994 ± 0.017.
The same measure, in the same setting: the figure for JARID2 (UniProt Q92833) is 0.999 ± 0.018; for NDRG1 (UniProt Q92597) it is 0.987 ± 0.048.
Same read-out and setting: as for PHIP (UniProt Q8WWQ0), the figure is 0.987 ± 0.014.

The same experiment, now with this note: concentration: 0.5mM.
Turning to UniProt Q8TB61 and related entries, the NP40-soluble protein abundance was determined as 0.976 ± 0.03.
The same measure, in the same setting: as for LRRC8C (UniProt Q8TDW0), the figure is 0.9738 ± 0.0028; as for UniProt Q8TF05 and related entries, 0.922 ± 0.076; as for UniProt Q8TDN6, 1.05 ± 0.011.
On to UniProt Q8TDR0 and related entries, for which the NP40-soluble protein abundance amounted to 1.01 ± 0.034.
Same read-out and setting: the figure for JADE3 (UniProt Q92613) is 1.04 ± 0.034.
On the same count and under the same terms, the figure for NUP43 (UniProt Q8NFH3) is 1.012 ± 0.004; for SCCPDH (UniProt Q8NBX0) it is 0.982 ± 0.085.
The same measure, in the same setting: the figure for UniProt Q8NFD5 and related entries is 0.981 ± 0.03; for NFATC2IP (UniProt Q8NCF5) it is 0.992 ± 0.027.
As for SNIP1 (UniProt Q8TAD8), the NP40-soluble protein abundance stood at 0.995 ± 0.024.
The same measure, in the same setting: as for THAP4 (UniProt Q8WY91), the figure is 0.9732 ± 0.0027; as for UniProt Q8NHH9 and related entries, 1 ± 0.018; as for IP6K1 (UniProt Q92551), 0.978 ± 0.03.
The same measure, in the same setting: the figure for UniProt Q8NFA0 and related entries is 0.974 ± 0.015; for UniProt Q8NCA5 and related entries it is 1.05 ± 0.042.
The same measure, in the same setting: the figure for GEMIN5 (UniProt Q8TEQ6) is 0.983 ± 0.061; for DTX3L (UniProt Q8TDB6) it is 0.985 ± 0.012.
Take NEK9 (UniProt Q8TD19): the NP40-soluble protein abundance amounted to 0.9952 ± 0.0049.
On the same count and under the same terms, as for UniProt Q8NC51 and related entries, the figure is 1.07 ± 0.025; as for UniProt Q92608 and related entries, 0.989 ± 0.071; as for NECAP1 (UniProt Q8NC96), 1 ± 0.038.
The same measure, in the same setting: as for UniProt Q8WUF8 and related entries, the figure is 1.01 ± 0.021.
Still for that read-out and setting: the figure for UniProt Q8TAP9 is 1.01 ± 0.035.
On to PPIL4 (UniProt Q8WUA2), for which the NP40-soluble protein abundance was 1 ± 0.024.
Same read-out and setting: the figure for EDEM1 (UniProt Q92611) is 0.999 ± 0.022; for UniProt Q8WVD3 and related entries it is 1 ± 0.031; for GPKOW (UniProt Q92917) it is 1.03 ± 0.058.
On the same count and under the same terms, the figure for TOPBP1 (UniProt Q92547) is 0.978 ± 0.03; for UniProt Q8TCZ2 and related entries it is 0.975 ± 0.046; for LEMD2 (UniProt Q8NC56) it is 1.05 ± 0.038.
On the same count and under the same terms, the figure for MOSPD2 (UniProt Q8NHP6) is 0.963 ± 0.029; for H1FX (UniProt Q92522) it is 1.03 ± 0.086.
As for NANP (UniProt Q8TBE9), the NP40-soluble protein abundance was determined as 1.03 ± 0.021.
The same measure, in the same setting: as for JARID2 (UniProt Q92833), the figure is 0.999 ± 0.024; as for NDRG1 (UniProt Q92597), 1.01 ± 0.019; as for PHIP (UniProt Q8WWQ0), 1.023 ± 0.0083.
